Laboratory results: US8889678B2, “Acyl guanidine derivatives modulating the hedgehog protein signaling pathway” (Centre National de la Recherche Scientifique, priority 2009, dated 2014)
Some of these results come from one statement about several compounds together.

Tested on: Hedgehog protein signaling pathway
Experiment: Inhibition of SAG-induced alkaline phosphatase activity (differentiation) in C3H10T1/2 cells
Format: cell-based
Settings: after activation of the pathway with SAG, method of Chen et al.
Experimental: The compounds of formula (I) to be tested were dissolved in dimethyl sulfoxide until a concentration of 10 mM was obtained, and then stored at a temperature of −20° C. until use.
The pluripotent fibroblast cell line C3H10T1/2 was cultured under the conditions recommended by the American Type Culture Collection (ATCC).
Activation with SAG causes the cell line to differentiate and allows the cells to express alkaline phosphatase. It was thus possible to measure the activity of the Hedgehog protein signaling pathway by measuring the alkaline phosphatase activity.
The C3H10T1/2 cells were seeded onto 96-well plates at a density of 5×10^3 cells per well, 24 hours before the addition of the test compounds at a concentration ranging from 1 nM to 30 μM and in the presence of 0.1 μM of SAG, using DMEM (Dulbecco's Modified Eagle's Medium) with 10% fetal calf serum, as culture medium. The tests were carried out in quadruplicate. The plates were then incubated for 5 to 6 days at a temperature of 37° C. under an atmosphere of 5% CO2. The cells were then washed in a cold phosphate buffer (Phosphate Buffered Saline: PBS), and then lysed by sonication at 4° C. in 50 μL of solution containing 0.9% of NaCl and 0.2% of Triton X-100.

Structure (SMILES)	inhibitory activity on the Hedgehog protein signaling pathway (% inhibition)
COc1cc(C(=O)NC(=N)Nc2cccc(-n3ccc4ccccc43)c2)cc(OC)c1OC [Compound 29, N—(N-(3-(1H-indol-1-yl)phenyl)carbamimidoyl)-3,4,5-trimethoxybenzamide]	greater than or equal to 80%
COc1cc(C(=O)NC(=N)Nc2cccc(NC(=O)c3ccco3)c2)cc(OC)c1OC [Compound 8, N-(3-(3-(3,4,5-trimethoxybenzoyl)guanidino)phenyl)furan-2-carboxamide]	greater than or equal to 80%
COc1cc(C(=O)NC(=N)Nc2ccc(Cl)c(NC(=O)Nc3ccccc3)c2)cc(OC)c1OC [Compound 38, N—(N-(4-chloro-3-(3-phenylureido)phenyl)carbamimidoyl)-3,4,5-trimethoxybenzamide]	greater than or equal to 80%
COc1cc(C(=O)NC(=N)Nc2ccc(Cl)c(NC(=O)c3ccc(Oc4ccccc4)cc3)c2)cc(OC)c1OC [Compound 32, N—(N-(4-chloro-3-(4-phenoxybenzamido)phenyl)-carbamimidoyl)-3,4,5-trimethoxybenzamide]	greater than or equal to 80%
COc1cc(OC)cc(C(=O)NC(=N)Nc2cccc(NC(=O)c3ccccc3)c2)c1 [Compound 9, N—(N-(3-benzamidophenyl)carbamimidoyl)-3,5-dimethoxybenzamide]	greater than or equal to 80%
COc1cc(C(=O)NC(=N)Nc2cccc(NC(=O)c3ccc4ccccc4c3)c2)cc(OC)c1OC [Compound 6, N-(3-(3-(3,4,5-trimethoxybenzoyl)guanidino)phenyl)-2-naphthamide]	greater than or equal to 80%
COc1ccc(C(=O)NC(=N)Nc2cccc(NC(=O)c3ccccc3)c2)c(OC)c1 [Compound 13, N—(N-(3-benzamidophenyl)carbamimidoyl)-2,4-dimethoxybenzamide]	greater than or equal to 80%
COc1cc(C(=O)NC(=N)Nc2ccc(Cl)c(NC(=O)c3ccc(-c4ccccc4)cc3)c2)cc(OC)c1OC [Compound 17, N-(2-chloro-5-(3-(3,4,5-trimethoxybenzoyl)guanidino)phenyl)-biphenyl-4-carboxamide]	greater than or equal to 80%
COc1cc(C(=O)NC(=N)Nc2cccc(-c3cc4ccccc4[nH]3)c2)cc(OC)c1OC [Compound 19, N—(N-(3-(1H-indol-2-yl)phenyl)carbamimidoyl)-3,4,5-trimethoxybenzamide]	greater than or equal to 80%
COc1cc(C(=O)NC(=N)Nc2cccc(NC(=O)c3ccc(-c4ccc(F)cc4)cc3)c2)cc(OC)c1OC [Compound 23, 4′-fluoro-N-(3-(3-(3,4,5-trimethoxybenzoyl)guanidino)phenyl)-biphenyl-4-carboxamide]	greater than or equal to 80%
COc1cc(C(=O)NC(=N)Nc2ccc(C)c(NC(=O)c3ccc(-c4ccc(F)cc4)cc3)c2)cc(OC)c1OC [Compound 30, 4′-fluoro-N-(2-methyl-5-(3-(3,4,5-trimethoxybenzoyl)-guanidino)phenyl)biphenyl-4-carboxamide]	greater than or equal to 80%
COc1cc(C(=O)NC(=N)Nc2cccc(NC(=O)c3ccccc3)c2)cc(OC)c1OC [Compound 15, N—(N-(3-benzamidophenyl)carbamimidoyl)-3,4,5-trimethoxybenzamide]	greater than or equal to 80%
COc1cc(C(=O)NC(=N)Nc2ccc(Cl)c(C(=O)Nc3ccccc3)c2)cc(OC)c1OC [Compound 21, N—(N-(4-chloro-3-(phenylcarbamoyl)phenyl)carbamimidoyl)-3,4,5-trimethoxybenzamide]	greater than or equal to 80%
COc1cc(C(=O)NC(=N)Nc2ccc(C)c(NC(=O)c3ccc(-c4ccccc4)cc3)c2)cc(OC)c1OC [Compound 24, N-(2-methyl-5-(3-(3,4,5-trimethoxybenzoyl)guanidino)phenyl)-biphenyl-4-carboxamide]	greater than or equal to 80%
COc1cc(C(=O)NC(=N)Nc2cccc(NC(=O)c3ccccc3)c2)cc2c1OCO2 [Compound 12, N—(N-(3-benzamidophenyl)carbamimidoyl)-7-methoxy-benzo[d][1,3]dioxole-5-carboxamide]	greater than or equal to 80%
COc1ccc(C(=O)Nc2cccc(NC(=N)NC(=O)c3cc(OC)c(OC)c(OC)c3)c2)cc1 [Compound 1, 3,4,5-trimethoxy-N—(N-(3-(4-methoxybenzamido)phenyl)-carbamimidoyl)benzamide]	greater than or equal to 80%
COc1cc(C(=O)NC(=N)Nc2cccc(NC(=O)c3ccccc3Cl)c2)cc(OC)c1OC [Compound 2, N—(N-(3-(2-chlorobenzamido)phenyl)carbamimidoyl)-3,4,5-trimethoxybenzamide]	greater than or equal to 80%
COc1cccc(C(=O)Nc2cccc(NC(=N)NC(=O)c3cc(OC)c(OC)c(OC)c3)c2)c1 [Compound 3, 3,4,5-trimethoxy-N—(N-(3-(3-methoxybenzamido)phenyl)-carbamimidoyl)benzamide]	greater than or equal to 80%
